In PubChem BioAssay AID200 (DTP/NCI, 2004):
The list shows only some results of the screen, not a fair sample: it is rich in T/C values a quarter to a half above the control, in often repeated tests (any T/C) and in doses without a T/C. Further doses and runs are listed elsewhere. T/C gives the treated animals as a percentage of the vehicle group. Some doses have a count of surviving animals in place of a T/C: the source files T/C as zero there, which appears to mark a toxic dose or a test without result, not a measured value. Some doses without a T/C left all or most animals alive at the check, yet need not have been tolerated: survival well below the control is almost never listed, so the zero probably covers shortened survival too. Counts of survivors are from the toxicity check (mostly the fifth day) where no day follows; animals may have died later. Schedules are NCI's codes, taken here to give the interval after Q, in days (D) or hours (H), and the number of doses after X. Some doses were run more than once; their values stand side by side, smallest first. Some structures stand for samples that the source files as different forms (salt, stereo form or complex); doses refer to the form tested. Counts like (3×) say how often a value occurs here. For survival time, this PubChem deposit counts one and a half times the control or more as active, and values a quarter to a half above the control carry no call in these data; other NCI protocols may use other cut-offs. Where a SMILES comes first, the peptide text is derived from it.

Test system: B6C3F1 mice, B16 melanoma ip, median survival T/C
Test: NCI In Vivo Anticancer Drug Screen. Data for tumor model B16 Melanoma (intraperitoneal) in B6C3F1 mice
Details: T/C endpoint: median survival time, higher T/C = longer survival
Summary of the method: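 Readout: survival or tumor size in treated mice relative to vehicle controls (T/C). Model uses transplantable tumors grown in mice.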

[1] = dose: 100.0 mg/kg/injection, schedule: Q01DX009 (ip), vehicle: saline
[2] = dose: 200.0 mg/kg/injection, schedule: Q01DX009 (ip), vehicle: saline
[3] = dose: 50.0 mg/kg/injection, schedule: Q01DX009 (ip), vehicle: saline with Tween-80
[4] = dose: 50.0 mg/kg/injection, schedule: Q01DX009 (ip), vehicle: saline
[5] = dose: 2.0 mg/kg/injection, schedule: Q01DX009 (ip), vehicle: water

With `COc1cccc2c1C(=O)c1c(O)c3c(c(O)c1C2=O)C[C@@](O)(C(C)=O)C[C@@H]3OC1CC(N2CCOCC2)C(O)C(C)O1` (stereo partly specified) the T/C (dose: 0.25 mg/kg/injection, schedule: Q01DX001 (ip), vehicle: water) was 144 % of control, the survivor count (dose: 0.5 mg/kg/injection, schedule: Q01DX001 (ip), vehicle: water) was 9 of 10 and the survivor count (dose: 1.0 mg/kg/injection, schedule: Q01DX001 (ip), vehicle: water) was 7 of 10. The survivor count (dose: 2.0 mg/kg/injection, schedule: Q01DX001 (ip), vehicle: water) was 0 of 10, the T/C (dose: 250.0 micrograms/kg/injection, schedule: Q01DX001 (ip), vehicle: water) was 126 % of control and the survivor count (dose: 500.0 micrograms/kg/injection, schedule: Q01DX001 (ip), vehicle: water) was 6 of 10.

`C=CCCC(=O)CCCC(=O)O[C@@H]1[C@@H]2[C@H](CC1(C)C)[C@H](O)[C@@]13O[C@@H]1[C@H](O)[C@@]1(CO1)[C@@]23C` was tested, and the survivor count (dose: 100.0 micrograms/kg/injection, schedule: Q01DX009 (ip), vehicle: Klucel (hydroxypropylcellulose) (HPC)) was 10 of 10.

For `O=CC(=O)c1ccc(O)cc1`, the survivor count [1] was 5 of 10 and the survivor count [2] was 2 of 10.

With `CCCC(NC(=O)OCc1ccccc1)C(=O)NCC(=O)O` (stereo unspecified) (HELM PEPTIDE1{[O=C(OCc1ccccc1)[*:2]].[CCCC(N[*:1])C(=O)[*:2]].G}$$$$V2.0) the survivor count (dose: 100.0 mg/kg/injection, schedule: Q01DX009 (ip), vehicle: Klucel (hydroxypropylcellulose) (HPC)) was 10 of 10, the survivor count (dose: 200.0 mg/kg/injection, schedule: Q01DX009 (ip), vehicle: Klucel (hydroxypropylcellulose) (HPC)) was 10 of 10 and the survivor count (dose: 400.0 mg/kg/injection, schedule: Q01DX009 (ip), vehicle: Klucel (hydroxypropylcellulose) (HPC)) was 10 of 10.

`S=c1sc2ccccc2n1CN1CCOCC1` was tested, and the T/C [3] was 143 % of control.

In the case of `Cc1c2ccc3ccccc3c2c[n+]2ccccc12`, the survivor count (dose: 40.0 mg/kg/injection, schedule: Q01DX009 (ip), vehicle: Klucel (hydroxypropylcellulose) (HPC)) was 3 of 10.

With `CCCC(NC(=O)OCc1ccccc1)C(=O)O` (stereo unspecified) the survivor count (dose: 400.0 mg/kg/injection, schedule: Q01DX009 (ip), vehicle: saline with Tween-80) was 9 of 10.

For `O=c1[nH]c(=O)c2nc(-c3cccnc3)cnc2[nH]1`, the survivor count [2] was 10 of 10 and the survivor count (dose: 400.0 mg/kg/injection, schedule: Q01DX009 (ip), vehicle: saline) was 10 of 10.

With `O=c1[nH]c2c(ccc3cnccc32)c2c1CCC2` the T/C (dose: 25.0 mg/kg/injection, schedule: Q01DX009 (ip), vehicle: saline) was 133 % of control, the survivor count [4] was 9 of 10 and the survivor count [1] was 10 of 10.

`COc1cc2c(c(OC)c1OC)-c1c(cc3c(c1OC)OCO3)CC(C)C(C)(O)C2OC(=O)c1ccccc1` (stereo unspecified) was tested, and the survivor count (dose: 400.0 mg/kg/injection, schedule: Q01DX009 (ip), vehicle: saline + Tween-80 + alcohol) was 10 of 10.

For `COc1ccc(C(=O)C(CN(C)C)CN(C)C)cc1`, the survivor count [4] was 0 of 10.

For `CCCCCCCCCCCCCC#CC(=O)O`, the survivor count (dose: 25.0 mg/kg/injection, schedule: Q01DX009 (ip), vehicle: saline with Tween-80) was 10 of 10, the survivor count [3] was 9 of 10 and 10 of 10 and the survivor count (dose: 100.0 mg/kg/injection, schedule: Q01DX009 (ip), vehicle: saline with Tween-80) was 7 of 10 and 10 of 10.

In the case of `COc1cc2cc3c(c(O)c2c(O)c1/C=C/C(C)C)C(=O)CC(C)(OC(C)=O)C3` (stereo unspecified), the T/C (dose: 5.0 mg/kg/injection, schedule: Q01DX009 (ip), vehicle: Klucel (hydroxypropylcellulose) (HPC)) was 133 and 148 % of control and the survivor count (dose: 10.0 mg/kg/injection, schedule: Q01DX009 (ip), vehicle: Klucel (hydroxypropylcellulose) (HPC)) was 10 of 10.

For `O=C1c2c(O)ccc(O)c2C(=O)c2c(NCCNCCO)ccc(NCCNCCO)c21`, the T/C (dose: 0.5 mg/kg/injection, schedule: Q01DX009 (ip), vehicle: water) was 125 % of control, the survivor count (dose: 0.5 mg/kg/injection, schedule: Q03HX024 (ip), vehicle: acid diluted with saline) was 7 of 10 and the T/C (dose: 1.0 mg/kg/injection, schedule: Q01DX009 (sc), vehicle: acid diluted with saline) was 131 % of control. The survivor count (dose: 1.0 mg/kg/injection, schedule: Q03HX024 (ip), vehicle: acid diluted with saline) was 9 of 10, the T/C [5] was 117 and 337 % of control and the survivor count [5] was 10 of 10. For the same molecule, the survivor count (dose: 2.0 mg/kg/injection, schedule: Q01DX009 (sc), vehicle: acid diluted with saline) was 10 of 10, the survivor count (dose: 2.0 mg/kg/injection, schedule: Q03HX024 (ip), vehicle: acid diluted with saline) was 6 of 10 and the survivor count (dose: 2.5 mg/kg/injection, schedule: Q01DX009 (ip), vehicle: water) was 10 of 10. For the same molecule, the survivor count (dose: 4.0 mg/kg/injection, schedule: Q01DX005 (ip), vehicle: saline) was 10 of 10, the survivor count (dose: 4.0 mg/kg/injection, schedule: Q01DX005 (iv), vehicle: acid diluted with saline) was 10 of 10 and the survivor count (dose: 4.0 mg/kg/injection, schedule: Q01DX005 (iv), vehicle: saline) was 9 of 10. For the same molecule, the survivor count (dose: 4.0 mg/kg/injection, schedule: Q01DX009 (ip), vehicle: acid diluted with saline) was 10 of 10, the survivor count (dose: 4.0 mg/kg/injection, schedule: Q01DX009 (ip), vehicle: other) was 10 of 10 and the survivor count (dose: 4.0 mg/kg/injection, schedule: Q01DX009 (ip), vehicle: water) was 10 of 10 (2×). The survivor count (dose: 4.0 mg/kg/injection, schedule: Q01DX009 (sc), vehicle: acid diluted with saline) was 10 of 10, the survivor count (dose: 4.0 mg/kg/injection, schedule: Q03HX008 (ip), vehicle: acid diluted with saline) was 0 of 10 and the survivor count (dose: 5.0 mg/kg/injection, schedule: Q01DX009 (ip), vehicle: water) was 7 of 10 and 10 of 10. For the same molecule, the survivor count (dose: 8.0 mg/kg/injection, schedule: Q01DX009 (ip), vehicle: water) was 10 of 10, the survivor count (dose: 8.0 mg/kg/injection, schedule: Q01DX009 (oral), vehicle: acid diluted with saline) was 8 of 10 and the survivor count (dose: 10.0 mg/kg/injection, schedule: Q01DX009 (ip), vehicle: water) was 8 of 10. For the same molecule, the survivor count (dose: 16.0 mg/kg/injection, schedule: Q01DX001 (iv), vehicle: acid diluted with saline) was 10 of 10, the survivor count (dose: 16.0 mg/kg/injection, schedule: Q01DX009 (ip), vehicle: water) was 10 of 10 and the survivor count (dose: 16.0 mg/kg/injection, schedule: Q01DX009 (oral), vehicle: acid diluted with saline) was 8 of 10. The survivor count (dose: 16.0 mg/kg/injection, schedule: Q04DX003 (ip), vehicle: acid diluted with saline) was 10 of 10, the survivor count (dose: 18.0 mg/kg/injection, schedule: Q01DX001 (ip), vehicle: acid diluted with saline) was 10 of 10 and the survivor count (dose: 32.0 mg/kg/injection, schedule: Q01DX001 (ip), vehicle: acid diluted with saline) was 6 of 10. The survivor count (dose: 32.0 mg/kg/injection, schedule: Q01DX001 (iv), vehicle: acid diluted with saline) was 6 of 10, the survivor count (dose: 32.0 mg/kg/injection, schedule: Q01DX009 (ip), vehicle: water) was 6 of 10 and the survivor count (dose: 32.0 mg/kg/injection, schedule: Q01DX009 (oral), vehicle: acid diluted with saline) was 10 of 10. For the same molecule, the survivor count (dose: 36.0 mg/kg/injection, schedule: Q01DX001 (ip), vehicle: acid diluted with saline) was 3 of 10 and 10 of 10, the survivor count (dose: 64.0 mg/kg/injection, schedule: Q01DX001 (ip), vehicle: acid diluted with saline) was 4 of 10 and the survivor count (dose: 64.0 mg/kg/injection, schedule: Q01DX009 (ip), vehicle: water) was 2 of 10. For the same molecule, the survivor count (dose: 72.0 mg/kg/injection, schedule: Q01DX001 (ip), vehicle: acid diluted with saline) was 1 of 10 and 10 of 10.
